# Data published in the supplement of paper PMC3334620.
# The full ranking holds about 33,000 sequences; the median of “E-score (-0.5 to 0.5)” is about -0.015, and the highest 2% start at about 0.3. The list shows a part of the results.
# Target: T1, Abf1 (UniProt P14164)
# T1 sequence: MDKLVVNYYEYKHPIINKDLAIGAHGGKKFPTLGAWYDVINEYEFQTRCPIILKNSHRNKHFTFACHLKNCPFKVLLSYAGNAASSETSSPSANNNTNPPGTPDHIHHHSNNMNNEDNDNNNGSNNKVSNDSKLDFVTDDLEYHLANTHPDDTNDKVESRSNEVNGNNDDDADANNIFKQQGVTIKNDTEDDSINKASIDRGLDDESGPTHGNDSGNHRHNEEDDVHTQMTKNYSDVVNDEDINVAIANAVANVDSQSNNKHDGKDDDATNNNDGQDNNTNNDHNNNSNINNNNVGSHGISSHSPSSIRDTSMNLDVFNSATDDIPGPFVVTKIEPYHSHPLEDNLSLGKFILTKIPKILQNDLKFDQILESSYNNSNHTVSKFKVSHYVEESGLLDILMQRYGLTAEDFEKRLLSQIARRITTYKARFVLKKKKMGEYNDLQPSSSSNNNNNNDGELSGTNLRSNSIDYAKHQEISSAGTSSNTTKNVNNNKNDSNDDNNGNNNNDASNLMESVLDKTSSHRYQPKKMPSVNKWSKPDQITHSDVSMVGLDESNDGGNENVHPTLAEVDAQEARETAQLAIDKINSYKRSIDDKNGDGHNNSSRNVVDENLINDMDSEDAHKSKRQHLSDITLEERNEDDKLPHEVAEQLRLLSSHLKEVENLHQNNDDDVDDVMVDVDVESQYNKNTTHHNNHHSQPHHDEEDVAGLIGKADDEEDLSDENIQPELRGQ
# Assay: PBM E-score (8-mer binding enrichment) (E-score (-0.5 to 0.5)); higher = stronger / more preferred TF binding
# Conditions: protein concentration: 200 nM; construct: GST-full length
# In short: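 For each ungapped eight-base word taken together with its reverse complement, the Universal PBM Analysis Suite assigned an E-score. Binding data came from GST-tagged yeast transcription factors, applied at about 100-200 nM, on universal all-10-mer Agilent arrays made double-stranded by primer extension. Fluorescent anti-GST marked bound protein, and scans were normalised with masliner.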
row,Sequence,PBM E-score
1,GGCTAAAA,-0.0238
2,ACTGACAT,0.0708
3,ACGATCCA,0.224
4,TAATAACA,0.104
5,GCCATGTA,0.0666
6,AACTTTAT,0.00309
7,AGACAAAG,0.159
8,CAGTAATC,-0.00799
9,CTTAGTCA,0.163
10,AAGCTACG,0.0386
11,GTATTGGA,-0.0246
12,GATTGAGA,0.21
13,AAGGTTGG,-0.0914
14,CCACTCCG,-0.00036
15,GATAGTCC,0.0357
16,GCATCGCA,-0.404
17,AATTAGAT,0.0466
18,GCCGAAAC,-0.0478
19,AACGATAC,0.32
20,CCACGTAA,0.0425
21,GCAATGCC,-0.0197
22,GTCCCCCA,-0.212

row,Sequence,PBM E-score
1,CCTAAGAA,0.1
2,ATATTCAA,0.185
3,GGACAAGA,-0.0306
4,ACCGGATC,-0.107
5,AGGCGGTC,-0.166
6,CCTCGCGA,-0.0731
7,ACAAGTGG,-0.0893
8,CGATGAAC,-0.0063
9,ACATGCAA,-0.0851
10,ATCCGTAC,0.261
11,GACAATCA,0.156
12,CTTAAACC,-0.179
13,GGACCACC,-0.184
14,GGCCCACA,0.0107
15,CGAGTAAG,-0.0754
16,CCTGTTTA,-0.0243
17,CACGTGGC,-0.00572
18,GCGATGAA,0.132
19,AGCTAGTA,0.0346
20,CTTCAAAC,0.128
21,ATGGTAGA,-0.0168
22,CTGAAACA,0.00579

row,Sequence,PBM E-score
1,AACACGGT,0.163
2,GAGGAGGC,-0.237
3,AGCTAGCT,-0.256
4,AGTATTTA,0.152
5,GGAACATA,-0.0483
6,CTAACGGA,0.0911
7,CGATGTAG,-0.123
8,CTTTCTTC,-0.0154
9,AACAAATT,0.201
10,AGGATACG,0.0264
11,AGAAATAC,0.158
12,AGCATGGG,-0.148
13,GAATGAGA,0.0436
14,AAGCAAGC,-0.164
15,AGTGAGCG,0.24
16,GTAAATAC,-0.0474
17,GGAGTGCA,-0.249
18,TTGCGAAA,-0.00754
19,AAGTTTCC,0.0534
20,AATGTGCA,0.0308
21,GAAAAGTA,0.0413
22,GTAGTCAC,0.0419

row,Sequence,PBM E-score
1,CTAGAGGA,-0.224
2,AGAGCTAG,-0.0458
3,AGTGTAGC,-0.1
4,GCCTGCAA,-0.152
5,AAGGGGTG,-0.0995
6,ACTTCGAT,0.106
7,CGCTACTC,-0.00995
8,AAAGAATC,-0.245
9,GATCTGCC,0.00672
10,ATACGATC,0.307
11,ACAGCAAT,0.0812
12,GAGCAGCA,-0.11
13,CCGTTCCC,0.159
14,ATTTTTGA,0.0422
15,AAGTGGTA,-0.00849
16,ACCGAGGG,-0.371
17,CCTCACCA,-0.1
18,AAGAAATG,0.0999
19,AGGGCTCG,-0.202
20,CGGGTAAA,0.036

# Quoted at random: 2 entries already listed, in no set order.
row,Sequence,PBM E-score
15,AAGTGGTA,-0.00849
4,GCCTGCAA,-0.152
